Data as given in patent publication US12202805B2, “Process for preparing (5S)-{[2-(4-carboxyphenyl)ethyl] |2-(2-{|3-chloro-4'-(trifluoromethyl)biphenyl-4-yl]methoxy}phenyl)ethyl]aminol-5,6,7,8-tetrahydroquinoline-2-carboxylic acid and its crystalline forms for use as pharmaceutically active compound” (Bayer Aktiengesellschaft, priority 2021, dated 2025).

Experiment: Filter experiments for deposited lung dose in the PAH minipig model and prediction of human dose
Format: in vivo
Experimental: The anesthetized thromboxane A2 challenged PAH-minipig model (see experimental part E-1) is considered to be the most relevant and sensitive model for the prediction of the human minimal effective and effective doses (MED, ED). To determine effective LDs, experiments were repeated with the difference that absorbing filters were attached at the end of the tubes to determine the deposited lung dose. […] Assuming a minimal effective ND of 3 μg/kg (5% reduction in PAP) the minimal effective deposited LD is considered as 0.15 μg/kg.
The nominal doses of 3, 10, 30 and 100 μg/kg of the minipig model were multiplied by the filter deposition factor of 5% resulting in 0.15, 0.5, 1.5 and 5 μg/kg lung deposited doses in the minipig. These values were multiplied by 60 kg to achieve the lung dose in humans. Thus, the FPD reflecting the PAP reduction for a 60 kg human are calculated to be 9, 30, 90 and 300 μg.
Thus, via a direct up-scaling from minipig, the predictive MED (5% PAP reduction) for a human based on a 60 kg body weight is calculated to be 9 μg LDD, not considering protein binding within the respiratory tract. As a surrogate for unbound concentrations, which are the likely active concentrations in the lung, we considered respective differences in fractions unbound in plasma of minipig and human. This consideration results in a minimum effective lung dose (LD) for a 60 kg participant of 41 μg LDD for the assumed 5% reduction on PAP. Consequently, the predictive minimal human effective dose is in the range from 9 μg LDD to 41 μg LDD based on a 60 kg body weight (see FIG. 3).
In order to generate a human dose estimate, experiments in the PAH minipig model for comparative example 11 were repeated with the difference that absorbing filters were attached at the end of the tubes to determine the deposited lung dose. […] The arithmetic mean of the aerosol fraction deposited on the filters is 5% based on all results of the filter experiments, resulting in relative lung deposited doses of about 0.15 μg/kg (3 μg/kg nominal dose), 0.5 μg/kg (10 μg/kg nominal dose), 1.5 μg/kg (30 μg/kg nominal dose) and 5 μg/kg (100 μg/kg nominal dose). Assuming a minimal effective nominal dose of 3 μg/kg for a 5% reduction in PAP and a mean nebulization efficiency of 5%, the minimal effective deposited lung dose is considered as 0.15 μg/kg based on the PAH minipig model. Therefore, for a human patient of 60 kg body weight a minimal effective lung deposited dose of 9-41p g, depending on whether or not an effect of different protein binding (see table 28) is postulated. Considering 100 μg/kg as effective dose in the minipig model, 300-1370 μg lung deposited dose is postulated as effective dose, again depending on the consideration of different interspecies protein binding.

## O=C(O)c1ccc(CCN(CCc2ccccc2OCc2ccc(-c3ccc(C(F)(F)F)cc3)cc2Cl)[C@H]2CCCc3nc(C(=O)O)ccc32)cc1 [example 2, (5S)—{[2-(4-Carboxyphenyl)ethyl][2-(2-{[3-chloro-4′-(trifluoromethyl)biphenyl-4-yl]methoxy}phenyl)-ethyl]amino}-5,6,7,8-tetrahydroquinoline-2-carboxylic acid as Monohydrate II]
3 μg/kg nominal dose
  relative lung deposited dose: about 0.15 μg/kg
10 μg/kg nominal dose
  relative lung deposited dose: ~0.5 µg/kg
30 μg/kg nominal dose
  relative lung deposited dose: ~1.5 µg/kg
100 μg/kg nominal dose
  relative lung deposited dose: ~5 µg/kg
